The target of the test is T1, Dosmit (downsizing mitochondria), endogenous in S2 cells (Drosophila melanogaster (endogenous in S2 cells)) (UniProt Q9VAM6).
T1 sequence: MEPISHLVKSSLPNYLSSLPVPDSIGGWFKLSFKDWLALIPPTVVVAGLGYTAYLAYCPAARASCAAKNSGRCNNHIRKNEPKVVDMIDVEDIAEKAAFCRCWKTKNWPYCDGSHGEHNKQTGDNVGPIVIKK
Kind of test: co-IP; lysate of S2 cells transfected with Rab32-HA or Hsc70-5-HA; immunoprecipitation of endogenous Dosmit with anti-Dosmit antibody and protein G Mag Sepharose beads, 4 °C; lysis buffer 50 mM Tris-HCl pH 8.0, 100 mM NaCl, 5 mM EDTA, 0.5% Nonidet P-40; blot for HA.

By UniProt entry, the sequences of proteins in these tests, tags left out.
UniProt P29845: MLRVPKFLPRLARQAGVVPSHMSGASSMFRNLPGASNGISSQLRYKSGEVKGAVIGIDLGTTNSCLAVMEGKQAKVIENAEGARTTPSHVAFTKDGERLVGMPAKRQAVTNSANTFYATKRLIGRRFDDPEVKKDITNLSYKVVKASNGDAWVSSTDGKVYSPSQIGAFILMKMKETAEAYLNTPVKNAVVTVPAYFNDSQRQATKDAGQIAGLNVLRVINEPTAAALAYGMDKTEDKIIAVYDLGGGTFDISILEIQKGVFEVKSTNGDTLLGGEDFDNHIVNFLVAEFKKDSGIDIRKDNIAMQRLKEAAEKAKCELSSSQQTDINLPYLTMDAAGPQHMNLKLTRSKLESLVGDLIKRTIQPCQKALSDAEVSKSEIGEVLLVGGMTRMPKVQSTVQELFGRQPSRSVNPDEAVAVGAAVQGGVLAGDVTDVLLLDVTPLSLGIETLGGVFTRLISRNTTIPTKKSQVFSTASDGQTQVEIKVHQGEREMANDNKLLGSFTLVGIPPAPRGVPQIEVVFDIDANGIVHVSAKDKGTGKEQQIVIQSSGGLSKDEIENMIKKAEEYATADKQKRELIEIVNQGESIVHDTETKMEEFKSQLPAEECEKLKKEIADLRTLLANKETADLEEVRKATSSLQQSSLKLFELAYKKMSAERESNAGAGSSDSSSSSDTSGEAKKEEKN

The values below come from paper PMC7244744, “Vesicular transport mediates the uptake of cytoplasmic proteins into mitochondria in Drosophila melanogaster” (Nature Communications, 2020).

Results are given in words; binding and its absence hold for the method and conditions named. Binding seen in cells or lysates may run through a third protein.

Consider Hsc70-5-HA (from UniProt P29845 1-686), for which the binding result was “no binding”.
